Values quoted from earlier work as cited in patent US11096902B1, “Transdermal film formulations and methods of use” (King Abdulaziz University, priority 2021, dated 2021).

Conditions: oral, with food

reduction of maximum drug concentration (Cmax) by concomitant intake of food: 9%
SMILES: CC(C)c1c(C(=O)Nc2ccccc2)c(-c2ccccc2)c(-c2ccc(F)cc2)n1CC[C@@H](O)C[C@@H](O)CC(=O)[O-].CC(C)c1c(C(=O)Nc2ccccc2)c(-c2ccccc2)c(-c2ccc(F)cc2)n1CC[C@@H](O)C[C@@H](O)CC(=O)[O-].[Ca+2] [ATC, Atorvastatin calcium]
